The values below come from PubChem BioAssay AID662 (National Center for Advancing Translational Sciences (NCATS), 2007).

Where “and” joins values, the source holds several entries; their conditions need not be identical. Equal entries are not always repeated. The list shows a part of the results. Further columns of the screen follow, without active or inactive calls. Most of these compounds were active or inconclusive in the main read-out, so they are no random draw. Potencies come from curve fits of mixed quality, noted in brackets.

The nature of the experiment: Cell signaling CRE-BLA (Fsk stim). Conditions: CHO CRE-bla reporter (cAMP response element driving beta-lactamase), forskolin EC10, beta-lactamase ratio; measured here: 460 nm blue channel. The essentials:
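Cells were plated overnight at 37 °C, exposed to compound titrations plus EC10 NKH 477 for 3 h, then given CCF4 dye for 2 h at room temperature. Blue/green (460/530 nm) ratio was converted to %Activity and AC50 values calculated.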
In the case of `CC(=NC1CCN(Cc2ccccc2)CC1)c1c(O)n(C)c(=O)n(C)c1=O`, the AC50 (commonly the concentration at which the activity in the assay is half-maximal) was 15.8 µM [rising, single point].
In the case of `COC(=O)[C@@H]1c2cc3c(c(O)c2[C@@H](O)C[C@]1(C)O)C(=O)c1c(O)cc2c(c1C3=O)O[C@H]1O[C@@]2(C)[C@@H](O)[C@H](N(C)C)[C@H]1O` it was 5.01 µM [falling, single point].
In the case of `CCn1nc(-c2cccs2)nc2c(=O)n(C)c(=O)nc1-2` it was 2 µM [falling, full curve].
In the case of `CCN1C[C@@]2(C)CC[C@H](O)[C@@]34[C@@H]5C[C@H]6[C@H](O)[C@@H]5[C@](O)(C[C@@H]6OC)[C@H](C[C@@H]23)[C@H]14` it was 12.6 µM [falling, partial curve, poor fit]; in that of `CC(=NCc1ccco1)c1c(O)n(Cc2ccccc2)c(=O)[nH]c1=O`, 12.6 µM [rising, single point].
For the compound `COc1ccc(CCNCc2ccccn2)cc1OC`, the AC50 is 0.00398 µM [falling, full curve, poor fit].
In the case of `COc1ccc(CCn2c(O)c(C=NCc3ccc4c(c3)OCO4)c(=O)[nH]c2=O)cc1OC` it was 25.1 µM [rising, single point]; in that of `COc1ccc(C[C@H]2c3cc(OC)c(OC)cc3CCN2C)cc1OC`, 12.6 µM [falling, single point]; in that of `O=C(Cn1cc(C(=O)c2ccccc2F)c2ccccc21)NCc1ccco1`, 25.1 µM [rising, single point].
In the case of `C=CCn1c(O)c(C(C)=NCc2cc(OC)cc(OC)c2)c(=O)[nH]c1=O` it was 10 µM [rising, partial curve]; in that of `NCCc1c[nH]c2ccc(OC(=O)C(=O)O)cc12`, 0.000794 µM [falling, full curve]; in that of `O=c1[nH]c(=O)n(Cc2ccccc2)c(O)c1C=NCCCn1ccnc1`, 0.794 µM [falling, full curve].
Next, `O=c1cccc2n1CC1CC2CN(c2ncnc3c2cnn3-c2ccccc2)C1` (configuration not stated): 3.98 µM [rising, partial curve]; `Nc1c(C(=O)OCC2CCCO2)c2nc3ccccc3nc2n1Cc1cccs1` (configuration not stated): 0.501 µM [rising, single point].
For `C[N+]1(C)[C@@H]2CC[C@H]1CC(OC(=O)c1c[nH]c3ccccc13)C2` (some centres not stated), the AC50 is 25.1 µM [falling, partial curve].
As for `Cn1c(=O)cc(OCC(=O)N2CCN(Cc3ccc4c(c3)OCO4)CC2)c2ccccc21`, the AC50 was 10 µM [rising, partial curve].
For `O=C(CCCN1CCC2(CC1)C(=O)N(CCc1ccc(N=C=S)cc1)CN2c1ccccc1)c1ccc(F)cc1`, the AC50 is 5.01 µM [rising, full curve].
Next, `CC1=C(O)C(=O)[C@H]2O[C@@H]2C1=O`: 3.16 µM [falling, full curve]; `COc1ccc2[nH]cc(C3=CCNCC3)c2c1`: 6.31 µM [falling, partial curve].
Next, `C(=C/c1ccccc1)/CN1CCN(CCOC(c2ccccc2)c2ccccc2)CC1`: 25.1 µM [falling, partial curve].
In the case of `Fc1ccc2c(c1)nnn2C1CCN(Cc2nnnn2CCc2ccccc2)CC1` it was 10 µM [rising, single point].
In the case of `C=CCn1c(O)c(C(CC)=Nc2cc(OC)ccc2OC)c(=O)[nH]c1=O`, the AC50 is 10 µM [rising, partial curve].
In the case of `CCNC(=O)[C@@H]1O[C@@H](n2cnc3c(N)ncnc32)[C@H](O)[C@H]1O`, the AC50 is 31.6 µM [falling, single point].
Turning to `O=C(O)[C@H]1[C@H](C(=O)O)[C@H]2CC[C@@H]1O2`, the AC50 is 25.1 µM [rising, single point].
In the case of `Clc1cccc(SC2CCNCC2)n1` it was 20 µM [falling, partial curve, poor fit].
Next, `O=C(CSc1ccccc1)N1CCC2(CC1)OCCO2`: 12.6 µM [rising, single point]; `O=c1ccc2[nH]cc(C3=CCNCC3)c2[nH]1`: 50.1 µM [falling, partial curve, poor fit].
In the case of `Cc1cc(Cl)ccc1OC(C)C(=O)O` (configuration not stated) it was 0.0794 µM [falling, partial curve, poor fit]; in that of `O=c1[nH]c2ccccc2n1C1CCN(CCCC(c2ccc(F)cc2)c2ccc(F)cc2)CC1`, 10 µM [falling, full curve, poor fit] and 10 µM [falling, partial curve]; in that of `CC(=O)[O][Hg][c]1ccccc1`, 3.98 µM [falling, full curve].
Consider `Clc1ccc(C(c2ccccc2Cl)C(Cl)(Cl)Cl)cc1` (configuration not stated), for which the AC50 was 31.6 µM [falling, single point].
Next, `Cc1ccccc1NC1=NCC(C)S1` (configuration not stated): 0.794 µM [rising, full curve]; `CCn1c(C(=O)N2CCC(C(=O)N3CCC4(CC3)OCCO4)CC2)cc2sccc21`: 0.631 µM [rising, single point]; `CCCCOc1ccc(CC2C(=O)N(C)C(=O)N(C)C2=O)cc1`: 0.316 µM [rising, partial curve].
`CC1(C)N=C(N)N=C(N)N1c1cccc(C(=O)Nc2ccc(S(=O)(=O)F)cc2)c1`: the AC50 was 3.98 µM [rising, single point].
Next, `CCCCCCCCn1sccc1=O`: 7.94 µM [falling, partial curve]; `CCCCCCCCCCCC[N+](C)(C)CCOc1ccccc1`: 31.6 µM [falling, single point].
Next, `CC(C)(c1ccc(OC[C@@H]2CO2)cc1)c1ccc(OC[C@H]2CO2)cc1`: 25.1 µM [falling, single point]; `COC(=O)CC1=C(C(=O)OC)C2(C(=O)Nc3c(C)cccc32)C(C#N)=C(N)O1` (configuration not stated): 25.1 µM [falling, single point].
As to `COc1cccc2c1cc([N+](=O)[O-])c1c(C(=O)O)cc3c(c12)OCO3`, the AC50 was 31.6 µM [falling, single point].
In the case of `CCc1c(C(=O)OC)ncc2[nH]c3cc(OC)c(OC)cc3c12` it was 2.51 µM [rising, full curve].
In the case of `CCCNC(=O)c1c(N)n(CC2CCCO2)c2nc3ccccc3nc12` (configuration not stated) it was 10 µM [rising, partial curve].
